Measured values reported in the supplement of paper PMC12819154, “High-throughput peptide-centric local stability assay extends protein–ligand identification to membrane proteins, tissues and bacteria” (Nature Structural & Molecular Biology, 2025).
This is one part of the list. Most values lie at the level of the controls, where differences are scatter.

Amino acid sequences for entries named in this document (tags omitted). A change or cut given only in a name is not applied to a line headed by its entry.
UniProt Q8C3W1: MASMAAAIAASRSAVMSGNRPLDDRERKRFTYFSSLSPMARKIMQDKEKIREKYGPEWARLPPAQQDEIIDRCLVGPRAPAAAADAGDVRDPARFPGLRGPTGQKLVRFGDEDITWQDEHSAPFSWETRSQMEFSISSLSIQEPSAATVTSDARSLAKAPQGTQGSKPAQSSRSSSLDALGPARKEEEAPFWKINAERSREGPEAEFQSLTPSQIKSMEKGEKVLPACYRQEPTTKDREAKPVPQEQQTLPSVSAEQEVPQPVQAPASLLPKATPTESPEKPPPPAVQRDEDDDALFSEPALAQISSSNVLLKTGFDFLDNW
UniProt Q8BX10: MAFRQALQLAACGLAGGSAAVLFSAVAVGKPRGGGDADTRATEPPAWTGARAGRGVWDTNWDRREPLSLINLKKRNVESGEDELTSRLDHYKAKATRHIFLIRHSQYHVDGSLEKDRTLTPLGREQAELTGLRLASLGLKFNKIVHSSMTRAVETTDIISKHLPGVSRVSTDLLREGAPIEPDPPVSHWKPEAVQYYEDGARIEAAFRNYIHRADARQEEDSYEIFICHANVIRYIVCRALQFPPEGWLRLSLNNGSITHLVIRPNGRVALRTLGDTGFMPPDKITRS
UniProt Q8C0C0: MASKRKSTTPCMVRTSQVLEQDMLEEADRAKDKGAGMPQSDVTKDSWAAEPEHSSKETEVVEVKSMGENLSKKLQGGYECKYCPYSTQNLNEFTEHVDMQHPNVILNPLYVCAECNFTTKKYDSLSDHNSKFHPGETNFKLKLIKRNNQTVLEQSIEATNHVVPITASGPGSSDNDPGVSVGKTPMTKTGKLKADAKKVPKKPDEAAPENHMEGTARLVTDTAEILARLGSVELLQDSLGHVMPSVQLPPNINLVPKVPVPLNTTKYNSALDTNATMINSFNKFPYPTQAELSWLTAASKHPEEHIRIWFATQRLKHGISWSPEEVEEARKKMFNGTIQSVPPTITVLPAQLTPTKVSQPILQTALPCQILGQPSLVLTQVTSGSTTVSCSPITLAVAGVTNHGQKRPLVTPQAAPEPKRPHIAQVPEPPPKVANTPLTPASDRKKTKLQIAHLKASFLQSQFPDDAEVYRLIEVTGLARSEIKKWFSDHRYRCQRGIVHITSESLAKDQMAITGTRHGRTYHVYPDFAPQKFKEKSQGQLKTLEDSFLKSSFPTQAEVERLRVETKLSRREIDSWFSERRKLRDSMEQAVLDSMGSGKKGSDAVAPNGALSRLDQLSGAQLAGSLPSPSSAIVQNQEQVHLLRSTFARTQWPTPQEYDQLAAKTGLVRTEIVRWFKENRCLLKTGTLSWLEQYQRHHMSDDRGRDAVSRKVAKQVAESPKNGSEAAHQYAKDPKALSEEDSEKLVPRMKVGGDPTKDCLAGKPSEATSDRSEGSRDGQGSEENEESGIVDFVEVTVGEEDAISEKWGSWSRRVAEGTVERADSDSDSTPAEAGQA
UniProt Q8C092, whole entry: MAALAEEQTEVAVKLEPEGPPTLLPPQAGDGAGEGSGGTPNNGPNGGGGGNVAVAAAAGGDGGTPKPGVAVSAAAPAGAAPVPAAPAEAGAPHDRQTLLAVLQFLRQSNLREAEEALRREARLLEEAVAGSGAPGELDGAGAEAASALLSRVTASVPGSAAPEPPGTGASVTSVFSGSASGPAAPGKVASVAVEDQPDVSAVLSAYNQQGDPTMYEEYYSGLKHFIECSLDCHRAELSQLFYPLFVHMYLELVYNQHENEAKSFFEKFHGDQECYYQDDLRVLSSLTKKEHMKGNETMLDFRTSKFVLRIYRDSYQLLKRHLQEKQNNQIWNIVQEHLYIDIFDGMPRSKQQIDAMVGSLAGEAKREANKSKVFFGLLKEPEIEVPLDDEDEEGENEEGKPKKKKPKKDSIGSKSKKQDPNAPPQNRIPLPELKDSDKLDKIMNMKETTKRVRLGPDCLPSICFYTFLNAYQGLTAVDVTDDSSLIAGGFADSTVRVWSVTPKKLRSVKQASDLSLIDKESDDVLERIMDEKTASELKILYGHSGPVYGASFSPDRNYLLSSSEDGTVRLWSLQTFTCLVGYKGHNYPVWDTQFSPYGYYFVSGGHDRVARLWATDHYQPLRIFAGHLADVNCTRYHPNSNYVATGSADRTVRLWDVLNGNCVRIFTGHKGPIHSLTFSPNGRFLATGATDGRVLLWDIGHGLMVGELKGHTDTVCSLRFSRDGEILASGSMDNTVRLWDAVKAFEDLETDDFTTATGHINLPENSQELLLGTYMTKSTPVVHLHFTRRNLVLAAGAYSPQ
UniProt Q8BY46: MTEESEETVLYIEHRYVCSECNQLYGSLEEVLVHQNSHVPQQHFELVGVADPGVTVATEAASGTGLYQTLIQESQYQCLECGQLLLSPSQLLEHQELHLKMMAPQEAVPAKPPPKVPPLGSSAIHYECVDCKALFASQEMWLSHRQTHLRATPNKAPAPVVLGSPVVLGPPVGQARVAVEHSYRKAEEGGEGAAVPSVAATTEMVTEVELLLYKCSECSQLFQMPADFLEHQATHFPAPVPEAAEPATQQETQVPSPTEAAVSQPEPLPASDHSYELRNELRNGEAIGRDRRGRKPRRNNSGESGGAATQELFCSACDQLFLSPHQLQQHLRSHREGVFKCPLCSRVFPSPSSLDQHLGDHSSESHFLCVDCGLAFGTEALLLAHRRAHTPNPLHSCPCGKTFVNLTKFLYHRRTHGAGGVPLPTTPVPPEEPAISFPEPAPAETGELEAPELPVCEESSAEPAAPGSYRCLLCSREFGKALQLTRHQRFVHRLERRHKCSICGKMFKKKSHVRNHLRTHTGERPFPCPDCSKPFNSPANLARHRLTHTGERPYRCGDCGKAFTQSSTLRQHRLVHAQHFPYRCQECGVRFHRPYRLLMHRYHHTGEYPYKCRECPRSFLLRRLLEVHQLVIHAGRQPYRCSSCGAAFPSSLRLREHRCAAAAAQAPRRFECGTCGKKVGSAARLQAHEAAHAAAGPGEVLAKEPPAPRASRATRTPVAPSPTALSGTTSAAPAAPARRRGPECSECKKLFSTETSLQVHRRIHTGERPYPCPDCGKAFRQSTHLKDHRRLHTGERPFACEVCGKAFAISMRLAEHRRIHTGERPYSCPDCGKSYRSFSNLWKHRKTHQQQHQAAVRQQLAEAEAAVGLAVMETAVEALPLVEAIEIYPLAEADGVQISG
UniProt Q8BW72: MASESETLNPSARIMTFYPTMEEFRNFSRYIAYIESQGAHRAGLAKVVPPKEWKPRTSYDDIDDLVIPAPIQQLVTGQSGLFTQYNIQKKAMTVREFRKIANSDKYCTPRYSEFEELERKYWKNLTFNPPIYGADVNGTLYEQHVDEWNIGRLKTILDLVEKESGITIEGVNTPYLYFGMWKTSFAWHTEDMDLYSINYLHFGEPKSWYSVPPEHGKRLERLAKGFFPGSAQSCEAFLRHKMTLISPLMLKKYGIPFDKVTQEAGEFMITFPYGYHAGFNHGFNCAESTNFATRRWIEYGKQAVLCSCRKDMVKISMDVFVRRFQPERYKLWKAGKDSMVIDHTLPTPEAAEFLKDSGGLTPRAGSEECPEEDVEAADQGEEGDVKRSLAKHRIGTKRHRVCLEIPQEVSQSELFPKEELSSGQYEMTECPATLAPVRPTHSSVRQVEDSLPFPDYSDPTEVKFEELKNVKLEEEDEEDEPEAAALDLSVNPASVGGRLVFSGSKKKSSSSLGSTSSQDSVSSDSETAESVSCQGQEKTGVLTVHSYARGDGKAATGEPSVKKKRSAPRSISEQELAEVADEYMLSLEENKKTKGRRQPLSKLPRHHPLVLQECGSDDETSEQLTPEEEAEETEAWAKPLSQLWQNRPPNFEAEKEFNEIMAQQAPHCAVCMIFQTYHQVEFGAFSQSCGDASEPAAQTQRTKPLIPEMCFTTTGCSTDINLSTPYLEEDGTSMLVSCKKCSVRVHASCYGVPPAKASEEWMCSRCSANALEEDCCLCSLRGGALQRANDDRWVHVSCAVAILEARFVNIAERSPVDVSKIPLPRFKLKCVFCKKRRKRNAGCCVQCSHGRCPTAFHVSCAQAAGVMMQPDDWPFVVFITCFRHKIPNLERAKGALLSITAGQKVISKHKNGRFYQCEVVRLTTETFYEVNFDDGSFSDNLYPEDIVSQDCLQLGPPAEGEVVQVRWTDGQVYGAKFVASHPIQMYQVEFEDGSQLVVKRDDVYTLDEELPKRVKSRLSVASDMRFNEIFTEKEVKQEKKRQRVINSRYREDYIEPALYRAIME
UniProt Q8BZ21, whole entry: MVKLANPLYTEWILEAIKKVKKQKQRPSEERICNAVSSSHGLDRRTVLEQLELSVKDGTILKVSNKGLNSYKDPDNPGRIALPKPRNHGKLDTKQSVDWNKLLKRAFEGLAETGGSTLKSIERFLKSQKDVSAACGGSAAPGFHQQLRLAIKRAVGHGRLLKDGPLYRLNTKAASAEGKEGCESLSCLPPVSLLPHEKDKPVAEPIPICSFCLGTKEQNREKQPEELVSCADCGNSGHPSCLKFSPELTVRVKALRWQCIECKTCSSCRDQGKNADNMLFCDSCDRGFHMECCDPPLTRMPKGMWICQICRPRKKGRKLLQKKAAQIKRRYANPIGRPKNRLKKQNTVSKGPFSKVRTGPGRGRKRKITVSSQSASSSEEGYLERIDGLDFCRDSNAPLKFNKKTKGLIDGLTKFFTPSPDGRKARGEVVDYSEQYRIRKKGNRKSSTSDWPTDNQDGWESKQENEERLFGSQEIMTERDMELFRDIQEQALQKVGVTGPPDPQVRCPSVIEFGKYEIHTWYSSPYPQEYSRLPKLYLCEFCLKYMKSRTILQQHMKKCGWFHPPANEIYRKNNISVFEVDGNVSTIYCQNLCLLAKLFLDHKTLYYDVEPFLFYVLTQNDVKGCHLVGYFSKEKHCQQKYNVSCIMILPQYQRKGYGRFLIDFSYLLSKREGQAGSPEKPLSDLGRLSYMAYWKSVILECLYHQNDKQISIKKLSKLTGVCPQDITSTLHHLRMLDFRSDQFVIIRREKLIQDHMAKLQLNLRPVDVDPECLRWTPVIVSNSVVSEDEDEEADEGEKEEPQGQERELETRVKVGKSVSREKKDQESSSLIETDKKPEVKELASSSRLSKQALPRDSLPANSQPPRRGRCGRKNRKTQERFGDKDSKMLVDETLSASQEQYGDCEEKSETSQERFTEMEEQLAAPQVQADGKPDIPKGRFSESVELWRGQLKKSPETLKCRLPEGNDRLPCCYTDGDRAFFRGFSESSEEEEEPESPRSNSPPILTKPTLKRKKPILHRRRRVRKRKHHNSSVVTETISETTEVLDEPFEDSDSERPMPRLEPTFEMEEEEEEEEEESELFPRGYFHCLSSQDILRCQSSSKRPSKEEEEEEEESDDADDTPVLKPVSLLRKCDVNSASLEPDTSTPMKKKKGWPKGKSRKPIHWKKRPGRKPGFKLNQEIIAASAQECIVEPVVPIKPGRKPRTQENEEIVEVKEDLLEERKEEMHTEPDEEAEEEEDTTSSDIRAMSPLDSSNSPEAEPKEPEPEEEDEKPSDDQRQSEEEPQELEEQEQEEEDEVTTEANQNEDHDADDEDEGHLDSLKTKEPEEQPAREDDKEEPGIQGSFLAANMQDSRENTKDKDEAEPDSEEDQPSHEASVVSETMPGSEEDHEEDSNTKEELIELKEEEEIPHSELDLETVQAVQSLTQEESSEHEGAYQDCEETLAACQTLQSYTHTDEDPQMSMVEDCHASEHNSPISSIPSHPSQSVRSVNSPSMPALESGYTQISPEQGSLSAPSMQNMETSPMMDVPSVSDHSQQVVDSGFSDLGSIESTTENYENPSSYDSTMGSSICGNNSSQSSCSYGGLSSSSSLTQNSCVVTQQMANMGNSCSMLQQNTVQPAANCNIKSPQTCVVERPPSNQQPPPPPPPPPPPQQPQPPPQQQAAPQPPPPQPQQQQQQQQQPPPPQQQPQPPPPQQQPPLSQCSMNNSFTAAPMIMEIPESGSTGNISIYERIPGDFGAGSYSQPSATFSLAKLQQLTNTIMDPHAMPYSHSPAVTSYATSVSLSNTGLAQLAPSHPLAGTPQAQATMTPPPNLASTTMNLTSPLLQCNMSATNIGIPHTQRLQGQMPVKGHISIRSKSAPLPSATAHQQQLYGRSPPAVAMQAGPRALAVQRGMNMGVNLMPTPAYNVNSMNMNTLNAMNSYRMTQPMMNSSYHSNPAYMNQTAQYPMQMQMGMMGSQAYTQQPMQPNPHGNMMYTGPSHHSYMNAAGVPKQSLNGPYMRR
UniProt Q8BZA9: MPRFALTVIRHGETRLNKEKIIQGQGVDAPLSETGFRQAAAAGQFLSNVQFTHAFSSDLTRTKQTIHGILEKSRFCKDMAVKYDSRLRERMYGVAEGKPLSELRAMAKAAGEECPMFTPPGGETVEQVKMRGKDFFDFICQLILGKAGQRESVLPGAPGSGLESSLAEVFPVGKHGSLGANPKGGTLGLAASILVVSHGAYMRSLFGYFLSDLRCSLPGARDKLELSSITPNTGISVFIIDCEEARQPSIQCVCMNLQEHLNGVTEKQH

What follows are targets tested with CN[C@@H]1C[C@H]2O[C@@](C)([C@@H]1OC)n1c3ccccc3c3c4c(c5c6ccccc6n2c5c31)C(=O)NC4 [staurosporine] (assay: log2 fold change of tryptic peptide abundance, ligand vs vehicle (limited proteolysis) (log2 ratio); higher = more trypsin-susceptible (destabilized)). Conditions: ligand concentration: 20 uM; sample: mouse liver crude lysate; replicate design: treated separately.

Q: “UniProt Q8C3W1 (peptide sequence: APAAAADAGDVRDPARFPGLR, peptide start residue: 79)” was tested. Which log2 fold change did it give?
A: -0.471

Q: How did the log2 fold change turn out when “UniProt Q8C4S8 (peptide sequence: HAGEGDKDVSPGISFK, peptide start residue: 266)” was run?
A: 0.753

Q: For “UniProt Q8BX10 (peptide sequence: EPLSLINLK, peptide start residue: 65)”, which log2 fold change is on record?
A: 0.0935

Q: For “UniProt Q8C0C0 (peptide sequence: NGSEAAHQYAKDPK, peptide start residue: 722)”, which log2 fold change is on record?
A: 0.425

Q: With “UniProt Q8CAF4 (peptide sequence: LSNDTGFHSLPR, peptide start residue: 320)” as the target, how does the log2 fold change read?
A: -0.267

Q: For “UniProt Q8C5N5 (peptide sequence: KPVLLGLR, peptide start residue: 6)”, which log2 fold change is on record?
A: 0.202

Q: Which log2 fold change does the source give for “UniProt Q8C092 (peptide sequence: QASDLSLIDKESDDVLER, peptide start residue: 510)” here?
A: -0.0831

Q: For “UniProt Q8BY46 (peptide sequence: VAVEHSYR, peptide start residue: 177)”, which log2 fold change is on record?
A: -0.0122

Q: How did the log2 fold change turn out when “UniProt Q8BW72 (peptide sequence: ISMDVFVR, peptide start residue: 316)” was run?
A: 0.167

Q: For “UniProt Q8BZ21 (peptide sequence: YANPIGRPK, peptide start residue: 331)”, which log2 fold change is on record?
A: 0.46

Q: How did the log2 fold change turn out when “UniProt Q8BZA9 (peptide sequence: ERMYGVAEGKPLSELR, peptide start residue: 89)” was run?
A: -0.417
